From ChEMBL document CHEMBL3988442, “University of Dundee, Small-Polar-MMV Screening Library” (2021).

The chains behind the UniProt entries cited, without tags or fusion partners.
UniProt E9BF75, entry or part of it: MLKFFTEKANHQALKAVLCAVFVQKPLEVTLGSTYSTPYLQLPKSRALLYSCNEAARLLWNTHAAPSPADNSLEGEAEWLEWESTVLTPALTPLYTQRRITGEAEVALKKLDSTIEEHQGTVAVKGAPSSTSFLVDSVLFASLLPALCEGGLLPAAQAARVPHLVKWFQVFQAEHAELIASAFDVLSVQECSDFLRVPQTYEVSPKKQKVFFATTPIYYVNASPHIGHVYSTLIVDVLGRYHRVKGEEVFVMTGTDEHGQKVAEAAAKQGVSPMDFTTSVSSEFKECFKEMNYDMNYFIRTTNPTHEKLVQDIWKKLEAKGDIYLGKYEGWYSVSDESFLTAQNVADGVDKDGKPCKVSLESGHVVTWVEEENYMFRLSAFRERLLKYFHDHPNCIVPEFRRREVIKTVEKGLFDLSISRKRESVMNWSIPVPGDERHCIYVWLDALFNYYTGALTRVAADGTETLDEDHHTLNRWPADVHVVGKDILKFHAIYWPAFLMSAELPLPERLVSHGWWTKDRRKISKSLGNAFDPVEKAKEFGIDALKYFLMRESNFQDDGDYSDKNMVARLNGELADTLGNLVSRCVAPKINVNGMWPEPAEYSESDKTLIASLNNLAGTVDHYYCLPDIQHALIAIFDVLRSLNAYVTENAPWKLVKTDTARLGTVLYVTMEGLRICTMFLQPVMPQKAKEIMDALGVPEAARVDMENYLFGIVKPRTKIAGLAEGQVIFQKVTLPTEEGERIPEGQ

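Primary screen of methionyl-tRNA synthetase; the read-out is not stated. Target: Methionyl-tRNA synthetase (putative), Leishmania donovani (UniProt E9BF75). The test concentration is not given. The values are filed as inhibition. About 68,000 compounds were tested under these conditions; 0.035% (about 24) showed 50% or more at least once.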

All values are in %. The controls that fix the scale are not given in the record; negative values are as filed. Compounds were drawn at random from those tested, without regard to their results.

structure	inhibition
CCNc1nc(-c2cccnc2)c(-c2ccnc(NS(C)(=O)=O)n2)s1	14.32
COc1cc(N2CC[C@@H]3O[C@@H](C(=O)NCCN(C)C)C[C@@H]32)ncn1	4.658
CN(C)C(=O)CN1C[C@@H]2CC[C@H](C1)N(Cc1c(Cl)cncc1Cl)C2	21.04
CC(C)CNc1cc(-c2c[nH]nc2C2CCN(C(=O)C3CC3)C2)ccn1 (stereo unspecified)	17.19
CCNc1ncc(CN2C[C@H]3CC[C@@H]2CN(C(=O)C2CCC2)C3)cn1	13.64
Cc1ccc(C)c(-n2ncc(C(=O)NCC3COC(C)(C)O3)c2N)c1 (stereo unspecified)	8.056
Cc1nn2cc(CCNC(=O)c3cc(C(C)C)no3)nc2s1	11.56
CCOCc1cnc2n1CCN(Cc1scnc1C)C2C (stereo unspecified)	6.569
CNc1ncc(CN2CCC(c3nnsc3S(C)(=O)=O)CC2)cn1	17.51
CC(=O)NCCCn1ncc2c(C)cccc21	-0.7538
CS(=O)(=O)CC1(CNc2c(C#N)cnc3ccc(Cl)cc23)CC1	12.57
CCN(CC)C(=O)CCCNC(=O)Cc1nc(-c2ccco2)oc1C	15.84
O=C1CCC2(CCCN(C(=O)C3CCCC3)C2)CN1CCc1c[nH]cn1 (stereo unspecified)	5.914
CC(C)N(CC(=O)Nc1cccc(C(=O)N(C)C)c1)C1CC1	6.969
COc1cccc(COCC(=O)N2CCCC(n3ccnc3C)C2)c1 (stereo unspecified)	2.454
CCN1CCCC(O)(CN(C)Cc2c(C)nn(C)c2C)C1 (stereo unspecified)	19.26
Cc1cc(N2CCN(Cc3ccnn3C)CC2)cc(C2CCCN2)n1 (stereo unspecified)	5.901
Cc1ccc(C(=O)N2CCO[C@H]3[C@H](OCC4CCOCC4)CC[C@@H]32)o1	8.75
Cc1cc(C)n(C2CN(CC(=O)N(C)Cc3ccc(C)o3)C2)n1	14.08
N#Cc1cccc(SCCS(N)(=O)=O)c1	12.39
COCCN(c1ccncc1)S(=O)(=O)c1cc(C)c(F)cc1F	2.375
CC(COc1ccccc1)NCc1nncn1C1CCCCC1 (stereo unspecified)	9.363
O=C(Nc1cccnc1-n1cc(Cl)cn1)C1CCCCC1	16.06
CC(CNC(=O)c1cnc[nH]1)Oc1ccc(Cl)cc1 (stereo unspecified)	16.72
COC(=O)CC(c1cccnc1)c1oc(C)cc(=O)c1O (stereo unspecified)	11.21
CN(C)S(=O)(=O)c1ccc(F)c(NC(=O)COCC2CC2)c1	6.407
O=C(NCCC(=O)N1CCCC1)c1ccc(SCc2cccnc2)cc1	11.26
CN(Cc1ccncc1)C1CC2(CCN(C(=O)c3ccnnc3)CC2)C1	12.41
CCc1nc(NCc2ccccn2)c2c(n1)c(C)nn2C	21.09
COCCNC(=O)c1cc(-n2cccc2)ccc1Cl	8.746
COC(=O)c1ccc(NC(=O)CCNCc2ccco2)cc1	10.36
COc1cccc([C@H]2CN(C(=O)c3scc4c3CCCC4)C[C@@H]2N)c1	8.04
Cc1c(CN2CCCC(C(=O)c3ccc(C(C)(C)C)cc3)C2)cnn1C (stereo unspecified)	8.04
COc1c(Br)cccc1CCNC(=O)c1csnn1	8.871
Cc1nc(N2CCCC(N3CCCC3)C2)c2cnn(C)c2n1 (stereo unspecified)	14.85
CS(=O)(=O)Cc1ccc(C(=O)NC2CCc3nccn3C2)o1 (stereo unspecified)	7.65
Cc1ccc(C(=O)NC(CN2CCCC2)c2ccccc2)c(=O)[nH]1 (stereo unspecified)	13.71
COc1ccc(C)cc1-n1cnnc1C1CCCN(C)C1 (stereo unspecified)	7.246
CC(NC(=O)N1CCN(c2ccccc2O)CC1)c1nncn1C (stereo unspecified)	13.58
Cc1nc(CN2CCCC(N(C)Cc3cnc(C)s3)C2)no1 (stereo unspecified)	1.718
O=C(CNc1cc2c(cc1Br)OCCO2)NC1CCS(=O)(=O)C1 (stereo unspecified)	5.072
Cc1noc([C@H]2CC[C@@H]3[C@@H](CCN3S(C)(=O)=O)O2)n1	13.33
COCc1nnc(C(=O)N(C)Cc2cnc3ccccn23)o1	10.78
O=C(NCCOCC(F)(F)F)c1ccc(-c2ccccc2)[nH]c1=O	18.71
CCC(CC)c1cc(C(=O)N2CCN(CC(N)=O)CC2)on1	13.65
Clc1ccc(OCCNCCn2cccn2)cc1	10.03
CCCN1CC[C@@H]2[C@@H](CO[C@H]2CNC(=O)c2nccn2C)C1	5.602
O=C(C1CC=CC1)N1CC[C@@H]2O[C@@H](COCC3CCOCC3)CC[C@@H]21	7.33
CCc1nc(C2CCCN2CCS(=O)(=O)c2ccccc2)no1 (stereo unspecified)	10.22
O=C(NC1CC1)C1CNCCN1C(=O)CCc1ccc2c(c1)OCO2 (stereo unspecified)	4.963
CS(=O)(=O)N1C[C@H](C(=O)Nc2cccnc2)C[C@H]2OCC[C@H]21	6.159
CN(C)c1cc(C2CCCN2Cc2ccccc2OCC(=O)O)ccn1 (stereo unspecified)	12.94
COc1ccc(Cl)cc1C(=O)N1C[C@@H](NC(=O)N(C)C)[C@H](C(C)C)C1	9.524
Cn1cc(CN2C[C@@H]3CCCO[C@@H]3[C@H](N3CCCC3=O)C2)cn1	13.49
Cc1nc(N)c2ccc(C3CCCN3)nc2n1 (stereo unspecified)	13.37
CC(C)c1nc(C(=O)N2C[C@H]3CC[C@@H]2CN(C2CCOCC2)C3)cs1	12.85
O=C1CO[C@@H]2CN(C3CCOCC3)C[C@H]2N1Cc1ccncc1	11.04
Cc1nccn1-c1cc(CNC(=O)CCNC(=O)OC(C)(C)C)ccn1	10.37
CN1CCOC(CNCC(=O)NCCc2ccc3c(c2)OCCO3)C1 (stereo unspecified)	6.983
CCN(Cc1ccc2c(c1)OCCO2)C(=O)NCCc1cnn(C)c1	16.19
CN(CC1CCOC1)S(=O)(=O)c1cccc(C(=O)N2CCOCC2)c1 (stereo unspecified)	8.602
Cc1ccc(-c2nnc(CN3CCOC(Cn4cccn4)C3)o2)cc1 (stereo unspecified)	8.92
CN1CCN(C(=O)N2CCCC2)Cc2cccnc21	9.14
CN(C(=O)c1ccc(S(=O)(=O)NC(C)(C)C)cc1)C1(C#N)CCC1	14.37
Cn1nccc1CN1CCOC(c2cccc(-c3cncnc3)n2)C1 (stereo unspecified)	5.312
CC(C)OCCN1CCN(C(=O)c2cccc(CC#N)c2)CC1	5.263
Cn1nc2c(cc1=O)CN(c1ncnc3ccsc13)CC2	4.032
CC(C)(O)CCc1ccc(C(=O)NCC2CCCOC2)cc1 (stereo unspecified)	13.73
c1cc2c(cc1CN1CCCC3(CCOC3)C1)OCO2 (stereo unspecified)	9.763
CC(=O)Nc1ccc(Oc2cc(C)nc(C3CCCNC3)c2)cc1 (stereo unspecified)	8.721
CC(=O)N1CCC(C(=O)N2CCCC(Cc3cccc(C)n3)C2)CC1 (stereo unspecified)	8.36
CCOc1ccc(NC(=O)c2oc(CC)cc2C)cc1CO	9.023
O=C(NCc1ccncc1)N(Cc1ccccc1F)C1CC1	7.805
CN(CCCOc1ccccc1Cl)C(=O)CN1CCNC1=O	14.85
Cc1nc(CO[C@@H]2CC[C@H]3[C@H]2OCCN3Cc2cccnc2)cs1	1.875
CN(C)CCN1CCC2(CCCN(Cc3cccn3C)C2)C1=O (stereo unspecified)	21.98
CC(C)CNC(=O)[C@H]1CCS(=O)(=O)[C@@H]2CN(CC(C)C)C[C@H]12	12.18
CNc1ncccc1C(=O)N1CCc2c(nc(N)[nH]c2=O)C1	12.26
O=C(c1ccco1)N1C[C@H]2CN(Cc3cccc(F)c3)C(=O)[C@H]2C1	-2
Cc1cc(C2CCCN(C(=O)COc3ccccc3F)C2)n[nH]1 (stereo unspecified)	5.541
c1cncc(NCCNC2CSCCSC2)c1	4.835
CS(=O)(=O)NCC(=O)NC1(c2ccc(Cl)c(Cl)c2)CC1	10.14
O=C(Nc1cc(C(F)(F)F)c[nH]c1=O)N1CCCSCC1	11.74

For reference, 8 entries once more:

Result for Cc1nc(N)c2ccc(C3CCCN3)nc2n1 (stereo unspecified) was 13.37%.
Result for Cc1nc(CN2CCCC(N(C)Cc3cnc(C)s3)C2)no1 (stereo unspecified) was 1.718%.
Result for c1cncc(NCCNC2CSCCSC2)c1 was 4.835%.
Result for CC(=O)Nc1ccc(Oc2cc(C)nc(C3CCCNC3)c2)cc1 (stereo unspecified) was 8.721%.
Result for CN(C)C(=O)CN1C[C@@H]2CC[C@H](C1)N(Cc1c(Cl)cncc1Cl)C2 was 21.04%.
Result for Cc1nc(N2CCCC(N3CCCC3)C2)c2cnn(C)c2n1 (stereo unspecified) was 14.85%.
Result for Clc1ccc(OCCNCCn2cccn2)cc1 was 10.03%.
Result for O=C(NCCC(=O)N1CCCC1)c1ccc(SCc2cccnc2)cc1 was 11.26%.